Results: US20160168234A1
Results are given in words; binding and its absence hold for the method and conditions named. Some results given as binding are weak or reduced against the parent protein; the word gives no strength.

Amino acid sequences for entries named in this document (tags omitted). Residues count along the entry.
UniProt P05067, residues 672-713: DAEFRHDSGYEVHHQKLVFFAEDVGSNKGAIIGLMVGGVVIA

Legend:
[1] = biological target: Amyloid Beta (antigen of the Amyloid Beta ELISA) (UniProt P05067); assay: Amyloid Beta ELISA, purified antibody from NS0
[2] = biological target: amyloid plaques of brains from AD disease patients (human) (UniProt P05067); assay: immunohistochemistry on paraffin sections of human brain pretreated with formic acid
[3] = biological target: Amyloid Beta (antigen of the Amyloid Beta ELISA) (UniProt P05067); assay: Amyloid Beta ELISA, conditioned medium from transient transfection

| Binder | binding [1] | binding [2] | binding [3] |
| --- | --- | --- | --- |
| C2 ChVH AF/ChVK chimeric antibody (purified, IgG4) (antibody, V domains shown) VH: EVQLVESGGGLVQPGGSLKLSCAASGFTFSSYGMSWVRQTPDKRLELVASINSNGGSTYYPDSVKGRFTISRDNAKNTLYLQMSSLKSEDTAMYYCASGDYWGQGSTLTVSS VL: DVVMTQTPLSLPVSLGDQASISCRSSQSLVYSNGDTYLHWYLQKPGQSPKLLIYKVSNRFSGVPDRFSGSGSGTDFTLKISRVEAEDLGVYFCSQSTHVPWTFGGGTKLEIKR | binds | binds |  |
| C2HuVH4/HuVK2 humanized antibody (purified) (antibody, human IgG4, V domains shown) VH: EVQLVESGGGLVQPGGSLRLSCAASGFTFSSYGMSWVRQAPGKGLELVASINSNGGSTYYPDSVKGRFTISRDNAKNSLYLQMNSLRAEDTAVYYCASGDYWGQGTTVTVSS VL: DIVMTQSPLSLPVTPGEPASISCRSSQSLVYSNGDTYLHWYLQKPGQSPQLLIYKVSNRFSGVPDRFSGSGSGTDFTLKISRVEAEDVGVYFCSQSTHVPWTFGQGTKVEIKR | binds |  |  |

The next lines start with the values.

| binding [1] | binding [2] | binding [3] | Binder |
| --- | --- | --- | --- |
|  |  | binds | VK-S antibody (mC2 VK-S with chimeric C2 VH) (antibody, V domains shown) VH: EVQLVESGGGLVQPGGSLKLSCAASGFTFSSYGMSWVRQTPDKRLELVASINSNGGSTYYPDSVKGRFTISRDNAKNTLYLQMSSLKSEDTAMYYCASGDYWGQGSTLTVSS VL: DVVMTQTPLSLPVSLGDQASISCRSSQSLVYSNGDTYLHWYLQKPGQSPKLLIYKVSSRFSGVPDRFSGSGSGTDFTLKISRVEAEDLGVYFCSQSTHVPWTFGGGTKLEIK |
|  |  | binds | VK-R antibody (mC2 VK-R with chimeric C2 VH) (antibody, V domains shown) VH: EVQLVESGGGLVQPGGSLKLSCAASGFTFSSYGMSWVRQTPDKRLELVASINSNGGSTYYPDSVKGRFTISRDNAKNTLYLQMSSLKSEDTAMYYCASGDYWGQGSTLTVSS VL: DVVMTQTPLSLPVSLGDQASISCRSSQSLVYSNGDTYLHWYLQKPGQSPKLLIYRVSNRFSGVPDRFSGSGSGTDFTLKISRVEAEDLGVYFCSQSTHVPWTFGGGTKLEIK |
